Laboratory results: PubChem BioAssay AID686943 (Drosophila RNAi Screening Center, 2013)
In all, the deposit lists about 23,000 reagents; below is a random part of those that have a named target and a result. 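Extra replicates exist only for a retested subset of genes; insulin dose and duration not given; both raised and lowered dpERK matter.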 Not all columns of the deposit are shown. Reagent sequences are not shown. Not stated in the record: the amount of reagent, the time to read-out.

Test: 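Fly genes whose loss alters ERK activation after insulin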 (primary screen)
System: Drosophila S2R+ haemocyte-like cells expressing YFP-tagged ERK (Rolled)
Reagents: long dsRNA against Drosophila genes
Conditions: insulin stimulation versus unstimulated cells; dose and duration not given
Measurement: 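Antibody staining for doubly phosphorylated ERK divided by ERK-YFP signal, as plate z-scores, in insulin-treated and untreated cells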
Reading the numbers: replicate 1, z-score of dpERK with insulin: higher = more active ERK per ERK-YFP after insulin

For Crk [DRSC17163], what was measured?
replicate 1, z-score of dpERK with insulin: 0.64

With Dscam4 [DRSC08911], how do the results read?
replicate 1, z-score of dpERK with insulin: -1.16

With Dscam4 [DRSC08913], what was measured?
replicate 1, z-score of dpERK with insulin: 0.94

For Dscam4 [DRSC10031], what does the deposit list?
replicate 1, z-score of dpERK with insulin: -0.91

With Dscam4 [DRSC10329], what was measured?
replicate 1, z-score of dpERK with insulin: -1.24

How did the screen score Dscam4 [DRSC10765]?
replicate 1, z-score of dpERK with insulin: 0.75

For CG8191 [DRSC20091], what does the deposit list?
replicate 1, z-score of dpERK with insulin: 0.68

With ninaE [DRSC17014], what does the deposit list?
replicate 1, z-score of dpERK with insulin: -0.87

With lncRNA:CR9284 [DRSC03899], what does the deposit list?
replicate 1, z-score of dpERK with insulin: -0.51

What is on record for lncRNA:CR9284 [DRSC04536]?
replicate 1, z-score of dpERK with insulin: -0.26

For CG4520 [DRSC15590], how do the results read?
replicate 1, z-score of dpERK with insulin: -0.17

What is on record for ana3 [DRSC06289]?
replicate 1, z-score of dpERK with insulin: -0.18

With NetB [DRSC20262], what was measured?
replicate 1, z-score of dpERK with insulin: 0.14

What is on record for CG1840 [DRSC19806]?
replicate 1, z-score of dpERK with insulin: 0.92

For capu [DRSC00208], what was measured?
replicate 1, z-score of dpERK with insulin: -0.22

What is on record for capu [DRSC00209]?
replicate 1, z-score of dpERK with insulin: -3.61

How did the screen score capu [DRSC00434]?
replicate 1, z-score of dpERK with insulin: 0.69

With capu [DRSC00807], what does the deposit list?
replicate 1, z-score of dpERK with insulin: 0.47

For CG43322 [DRSC02280], how do the results read?
replicate 1, z-score of dpERK with insulin: 0.23

Which result is listed for Iyd [DRSC10614]?
replicate 1, z-score of dpERK with insulin: -0.33

For Iyd [DRSC10615], how do the results read?
replicate 1, z-score of dpERK with insulin: 0.1

For CG1663 [DRSC06613], what does the deposit list?
replicate 1, z-score of dpERK with insulin: 0.97

With CG1663 [DRSC22488], what was measured?
replicate 1, z-score of dpERK with insulin: -0.69

For CG11807 [DRSC06087], what does the deposit list?
replicate 1, z-score of dpERK with insulin: -0.53

Which result is listed for kkv [DRSC12315]?
replicate 1, z-score of dpERK with insulin: 0.48

For CG11509 (retired record) [DRSC17788], how do the results read?
replicate 1, z-score of dpERK with insulin: 0.64

What did the screen give for CG11380 [DRSC18632]?
replicate 1, z-score of dpERK with insulin: -3.64

What did the screen give for dgt5 [DRSC07280]?
replicate 1, z-score of dpERK with insulin: -0.45

How did the screen score CR30374 [DRSC05080]?
replicate 1, z-score of dpERK with insulin: 0.43

For Ucp4C [DRSC03132], how do the results read?
replicate 1, z-score of dpERK with insulin: -0.26

Which result is listed for Fdh [DRSC16670]?
replicate 1, z-score of dpERK with insulin: 0.7

With Acp24A4 [DRSC22352], what was measured?
replicate 1, z-score of dpERK with insulin: 0.51

With CG10013 [DRSC14175], how do the results read?
replicate 1, z-score of dpERK with insulin: -0.11

Which result is listed for Cth [DRSC07422]?
replicate 1, z-score of dpERK with insulin: 0.91

How did the screen score Atet [DRSC00263]?
replicate 1, z-score of dpERK with insulin: 1.39

With CG10561 [DRSC02068], what was measured?
replicate 1, z-score of dpERK with insulin: 0.05

Which result is listed for CG3744 [DRSC15511]?
replicate 1, z-score of dpERK with insulin: 0.04

Which result is listed for beat-IIb [DRSC13219]?
replicate 1, z-score of dpERK with insulin: -0.14

With beat-IIb [DRSC14816], how do the results read?
replicate 1, z-score of dpERK with insulin: 0.34

What is on record for beat-IIb [DRSC15546]?
replicate 1, z-score of dpERK with insulin: 0.04

Single entries from above.
beat-IIb [DRSC13219], replicate 1, z-score of dpERK with insulin = -0.14
Result for Fdh [DRSC16670] in “replicate 1, z-score of dpERK with insulin”: 0.7
Value of lncRNA:CR9284 [DRSC03899] under “replicate 1, z-score of dpERK with insulin”: -0.51
Value of NetB [DRSC20262] under “replicate 1, z-score of dpERK with insulin”: 0.14
CG11807 [DRSC06087], replicate 1, z-score of dpERK with insulin = -0.53
Value of Dscam4 [DRSC08911] under “replicate 1, z-score of dpERK with insulin”: -1.16
